{"source": "PubChem BioAssay AID504444", "about": "(National Center for Advancing Translational Sciences (NCATS), 2011)", "note": "Hit rate of the full screen: of about 360,000 compounds, about 7,500 (2.1%) were called active. The shares of active, inactive and inconclusive entries below differ from those in the screen. Calls follow the shape of the dose curve; as a rule, active = well fitted inhibition curve with a large enough effect; inconclusive = small, poorly fitted or top-dose-only effect, or effect the other way; inactive = flat fitted curve, though single readings scatter. Where the call is inconclusive, the potency comes from a doubtful curve fit. Potency is read from the fitted curve at half-maximal effect.", "data": [{"assay": "Nrf2 qHTS screen for inhibitors; also: nearly all actives have a fitted effect of over 60% in size", "details": "A549 ARE-Fluc reporter, luciferase luminescence, 18-24 h; series mostly up to 46 µM", "procedure,_shortened": "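Nrf2 activity is the BugLite luminescence, read 15 min after reagent at room temperature, following CellTiter-Fluor cytotoxicity readout (30 min, 37C). Compound titrations were applied for 18-24 h to 5000 A549 ARE_Fluc cells/well in 5% FBS OPTI-MEM.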", "values": [{"smiles": "O=C(Nc1ccc2c(c1)CCC2)c1ccc(Br)o1", "Potency": "inconclusive: 16.4 µM [activator, partial curve]"}, {"smiles": "Cc1cc(C)nc(NC(=NCCc2c[nH]c3ccccc23)NC(=O)C(C)(C)C)n1", "Potency": "active: 20.6 µM"}, {"smiles": "O=C(NCCn1cc(SCc2ccc(C(F)(F)F)cc2)c2ccccc21)c1cccs1", "Potency": "inconclusive: 29.1 µM [falling, single point]"}, {"smiles": "COCCNc1oc(-c2ccco2)nc1S(=O)(=O)c1ccccc1", "Potency": "inconclusive: 18.4 µM [activator, single point]"}, {"smiles": "COc1ccc(-n2nc3c(N4CCCC(C(=O)NCc5ccccc5C)C4)nnc(C)c3c2C)cc1", "note": "(stereo not given)", "Potency": "active: 20.6 µM"}, {"smiles": "c1ccn2c(SCc3ccc4c(c3)OCO4)nnc2c1", "Potency": "inconclusive: 23.1 µM [activator, partial curve, poor fit]"}, {"smiles": "CN1CCN(C(=S)C(=O)Nc2ccc(Br)cc2)CC1", "Potency": "inactive"}, {"smiles": "O=C(Nc1nc2ccccc2[nH]1)c1cccs1", "Potency": "inconclusive: 1.64 µM [activator, full curve]"}, {"smiles": "CSc1c(CC(=O)Nc2ccccc2)n(C)c2ccccc12", "Potency": "inconclusive: 8.2 µM [falling, full curve, poor fit]"}, {"smiles": "CC1(c2nnc(-c3ccc(F)cc3)o2)CC(c2cccc(Cl)c2)=NO1", "note": "(stereo not given)", "Potency": "inconclusive: 25.9 µM [falling, single point]"}, {"smiles": "O=C(Cc1ccc(Cl)cc1)NCc1ccccc1Cl", "Potency": "inconclusive: 5.17 µM [activator, partial curve]"}, {"smiles": "COc1cc(NC(=S)NCCc2ccccc2)c(OC)cc1NC(=O)CC(C)C", "Potency": "inactive"}, {"smiles": "CC(=O)c1cccc(NC(=O)c2ccc3ccccc3c2)c1", "Potency": "inconclusive: 23.1 µM [activator, partial curve]"}, {"smiles": "Cc1nnc(SCC(=O)NCc2cccc(F)c2)c2nn(-c3ccccc3)c(C)c12", "Potency": "inconclusive: 18.4 µM [falling, partial curve]"}, {"smiles": "Cc1nc2c(C(=O)N3CCCC3)cnn2c(C)c1Cc1c(F)cccc1Cl", "Potency": "inactive"}, {"smiles": "CCCOC(=O)C(C)n1cnc2scc(-c3ccc(C)cc3)c2c1=O", "note": "(stereo not given)", "Potency": "inconclusive: 11.6 µM [falling, partial curve, poor fit]"}, {"smiles": "O=C(c1ccco1)N1CCN(C(=O)C2CCCc3c2[nH]c2ccc(Cl)cc32)CC1", "note": "(stereo not given)", "Potency": "inconclusive: 2.59 µM [activator, full curve, poor fit]"}, {"smiles": "COCC(C)NCc1cccc2ccccc12", "note": "(stereo not given)", "Potency": "inconclusive: 2.91 µM [falling, partial curve, poor fit]"}, {"smiles": "CSc1ncccc1C(=O)Nc1cc(C)ccn1", "Potency": "inconclusive: 6.51 µM [activator, full curve, poor fit]"}, {"smiles": "CN1C(=O)C2(c3ccccc31)c1c(oc3ccccc3c1=O)C(=O)N2CCO", "note": "(stereo not given)", "Potency": "inconclusive: 0.0326 µM [falling, full curve, poor fit]"}, {"smiles": "CC(=O)Nc1ccc2nc(-c3ccccc3)cn2c1", "Potency": "inconclusive: 0.184 µM [activator, full curve, poor fit]"}, {"smiles": "COc1cccc(NC(=O)CN2C(=O)COc3ccc(S(=O)(=O)N4CCOCC4)cc32)c1", "Potency": "inconclusive: 29.1 µM [activator, single point]"}, {"smiles": "CC(C)(C)OC(=O)NCc1nnc(C(C(=O)OCc2ccccc2)c2ccccc2)s1", "note": "(stereo not given)", "Potency": "inactive"}, {"smiles": "Cc1[nH]c2ccccc2c1C1(O)C(=O)N(Cc2ccccc2)c2ccc(Br)cc21", "note": "(stereo not given)", "Potency": "inconclusive: 23.1 µM [falling, single point]"}, {"smiles": "O=C(O)CN1C(=O)/C(=C\\c2cc(Br)ccc2OCc2ccc(Cl)cc2)SC1=S", "Potency": "inconclusive: 0.461 µM [falling, full curve, poor fit]"}, {"smiles": "CN(c1nnc(NC(=O)Nc2ccc(Br)cc2)s1)C1CCCCC1", "Potency": "inactive"}, {"smiles": "COc1cc(/C=C2\\COC/C(=C\\c3cc(OC)c(OC)c(OC)c3)C2=O)cc(OC)c1OC", "Potency": "active: 5.8 µM"}, {"smiles": "CC(=O)N1CCCc2cc(S(=O)(=O)N3CCCC(C(=O)Nc4cccc(C)c4)C3)ccc21", "note": "(stereo not given)", "Potency": "inconclusive: 29.1 µM [falling, single point]"}, {"smiles": "Cc1nc2ccccc2c2oc(C(=O)NCc3ccc4c(c3)OCO4)cc12", "Potency": "inconclusive: 18.4 µM [falling, single point]"}, {"smiles": "COc1ccc(-n2cc(-c3ccccc3)nc2SC)cc1", "Potency": "inconclusive: 0.731 µM [activator, full curve, poor fit]"}, {"smiles": "Cc1cccc(NC(=O)c2cccc(NC(=O)c3ccco3)c2)c1C", "Potency": "inconclusive: 29.1 µM [falling, single point]"}, {"smiles": "C=CCOc1ccc(CN(C)C(=O)C2CCCO2)cc1", "note": "(stereo not given)", "Potency": "inactive"}, {"smiles": "COc1ccc(C)cc1NC(=O)CN(C)S(=O)(=O)c1ccc2c(c1)CC(C)N2C(C)=O", "note": "(stereo not given)", "Potency": "inconclusive: 29.1 µM [falling, single point]"}, {"smiles": "Cc1ccc(C)c(C(=O)COC(=O)c2ccc(C)c(S(=O)(=O)N3CCOCC3)c2)c1", "Potency": "inconclusive: 29.1 µM [falling, single point]"}, {"smiles": "CCc1ccc(S(=O)(=O)Nc2cc3c(cc2C)n(C)c(=O)n3C)cc1", "Potency": "inconclusive: 1.64 µM [falling, partial curve]"}, {"smiles": "CCOC(=O)Cn1nc(-c2ccc(Cl)cc2)cc1N", "Potency": "inconclusive: 5.17 µM [activator, partial curve]"}, {"smiles": "CC1=C(C)CC(C(=O)Nc2nc(-c3ccc(C)cc3C)c(C)s2)C(C(=O)O)C1", "note": "(stereo not given)", "Potency": "inconclusive: 18.4 µM [falling, partial curve, poor fit]"}, {"smiles": "CCOc1ccc(NC(=O)CSc2nncc(=O)[nH]2)cc1", "Potency": "inconclusive: 0.82 µM [activator, partial curve, poor fit]"}, {"smiles": "O=C(Nc1ccccc1C(F)(F)F)N1Cc2ccccc2Oc2ncccc21", "Potency": "inconclusive: 29.1 µM [activator, partial curve, poor fit]"}, {"smiles": "COc1cccc(C2C=C(c3ccc(C)cc3)Nc3c(C(=O)Nc4ccc(F)cc4)cnn32)c1OC", "note": "(stereo not given)", "Potency": "inconclusive: 6.51 µM [falling, single point]"}, {"smiles": "CC1=C(C#N)c2nc(N)c(C#N)c(C)c2/C1=C\\c1ccc(-c2ccccc2C(=O)O)o1", "Potency": "inactive"}, {"smiles": "O=C(C1CCN(c2nnnn2-c2ccccc2)CC1)N1CCN(c2ccccc2)CC1", "Potency": "inconclusive: 8.2 µM [falling, partial curve]"}, {"smiles": "CN(C)S(=O)(=O)Nc1ccccc1C(N)=O", "Potency": "inactive"}, {"smiles": "N#C/C(=C(/O)c1ccc2c(c1)OCO2)c1nc2cc(C(F)(F)F)ccc2s1", "Potency": "inconclusive: 20.6 µM [falling, single point]"}, {"smiles": "COc1ccc(CN(C(=O)c2ccc(OCC(C)C)cc2)C2CCS(=O)(=O)C2)cc1", "note": "(stereo not given)", "Potency": "inconclusive: 25.9 µM [falling, partial curve, poor fit]"}, {"smiles": "CCN(Cc1ccccc1)C(=O)c1cccc(OC2CCN(C(=O)C3CC3)CC2)c1", "Potency": "inconclusive: 29.1 µM [falling, single point]"}, {"smiles": "CC(C)n1cc(CN2CCCC(C(=O)Nc3cccc(-c4cc5ccccc5[nH]4)c3)C2)cn1", "note": "(stereo not given)", "Potency": "inactive"}, {"smiles": "COc1ccccc1NCC(O)Cn1c2ccccc2c2ccccc21", "note": "(stereo not given)", "Potency": "inconclusive: 29.1 µM [falling, single point]"}, {"smiles": "CCOC(=O)C(C)N1C(=O)S/C(=C/c2cc(C)n(-c3ccncc3)c2C)C1=O", "note": "(stereo not given)", "Potency": "inconclusive: 29.1 µM [falling, single point]"}, {"smiles": "O=C(/C=C/c1ccc(Br)cc1)NC(=S)NNC(=O)c1ccco1", "Potency": "inconclusive: 29.1 µM [falling, single point]"}, {"smiles": "CC(C)N(CCNC(=O)c1cn(C)c2ccc(S(=O)(=O)N(C)C)cc2c1=O)Cc1ccccc1", "Potency": "inconclusive: 0.82 µM [falling, full curve, poor fit]"}, {"smiles": "Cc1ccsc1CNn1cnnc1SCc1ccc(Cl)cc1", "Potency": "inconclusive: 16.4 µM [falling, partial curve, poor fit]"}, {"smiles": "CC(=O)Nc1ccc2c(c1)C(=O)N(c1cccc3ccccc13)C2=O", "Potency": "inactive"}, {"smiles": "N#Cc1ccc(NC(=O)COC(=O)c2cccnc2Cl)cc1", "Potency": "inactive"}, {"smiles": "Cc1cccc(Oc2ccccc2NC(=O)CSCC(=O)Nc2cc(C)on2)c1", "Potency": "inconclusive: 23.1 µM [falling, single point]"}, {"smiles": "Fc1ccc(CNC(=S)Nc2ccccc2F)cc1", "Potency": "inconclusive: 18.4 µM [falling, partial curve, poor fit]"}, {"smiles": "Nc1ccc2nc(-c3ccc(Cl)cc3)[nH]c2c1", "Potency": "inconclusive: 13 µM [activator, partial curve, poor fit]"}, {"smiles": "COc1ccc(CNC(=O)CCn2c(=O)[nH]c3ccccc3c2=O)cc1", "Potency": "inactive"}, {"smiles": "O=C(Nc1ccc2c(c1)OCCO2)c1ccccn1", "Potency": "inconclusive: 23.1 µM [falling, single point]"}, {"smiles": "C=CC[C@@H](CC(=O)N[C@H](CO)Cc1ccccc1)C(=O)N[C@H](COC(=O)[C@@H](CC=C)Cc1ccc(F)cc1)C(C)(C)C", "Potency": "inconclusive: 13 µM [falling, partial curve, poor fit]"}, {"smiles": "COc1cccc(C2C(C(=O)OC(C)C)=C(C)N=c3s/c(=C\\c4ccc(C(=O)O)cc4)c(=O)n32)c1", "note": "(stereo not given)", "Potency": "inconclusive: 29.1 µM [falling, single point]"}, {"smiles": "COC(=O)c1ccc(Oc2nc3c(c(=O)n(C)c(=O)n3C)n2CCC(C)C)cc1", "Potency": "inconclusive: 0.164 µM [activator, full curve, poor fit]"}, {"smiles": "CC(=O)N1c2ccc(S(=O)(=O)NCC3CCC(C(=O)Nc4cccc(F)c4)CC3)cc2CC1C", "note": "(stereo not given)", "Potency": "inconclusive: 18.4 µM [falling, single point]"}, {"smiles": "Cc1ccc(NC(=O)CSCC#N)cc1", "Potency": "inconclusive: 1.64 µM [activator, partial curve, poor fit]"}, {"smiles": "Cc1cccc(NS(=O)(=O)c2cccc(C(=O)N3CCN(c4ccccn4)CC3)c2)c1", "Potency": "inconclusive: 13 µM [falling, partial curve]"}]}]}
